Paper PMC11842872
These are yes or no findings as the source states them, for the method shown. In cells and extracts the contact can be indirect. Some results given as binding are weak or reduced against the parent protein; the word gives no strength. Sequences can lack the tags named with a protein.

Target: T1, HA-tagged HT-Rad21 (N-terminally HaloTag-tagged zebrafish cohesin subunit Rad21a) (zebrafish) (UniProt Q6TEL1)
T1 sequence: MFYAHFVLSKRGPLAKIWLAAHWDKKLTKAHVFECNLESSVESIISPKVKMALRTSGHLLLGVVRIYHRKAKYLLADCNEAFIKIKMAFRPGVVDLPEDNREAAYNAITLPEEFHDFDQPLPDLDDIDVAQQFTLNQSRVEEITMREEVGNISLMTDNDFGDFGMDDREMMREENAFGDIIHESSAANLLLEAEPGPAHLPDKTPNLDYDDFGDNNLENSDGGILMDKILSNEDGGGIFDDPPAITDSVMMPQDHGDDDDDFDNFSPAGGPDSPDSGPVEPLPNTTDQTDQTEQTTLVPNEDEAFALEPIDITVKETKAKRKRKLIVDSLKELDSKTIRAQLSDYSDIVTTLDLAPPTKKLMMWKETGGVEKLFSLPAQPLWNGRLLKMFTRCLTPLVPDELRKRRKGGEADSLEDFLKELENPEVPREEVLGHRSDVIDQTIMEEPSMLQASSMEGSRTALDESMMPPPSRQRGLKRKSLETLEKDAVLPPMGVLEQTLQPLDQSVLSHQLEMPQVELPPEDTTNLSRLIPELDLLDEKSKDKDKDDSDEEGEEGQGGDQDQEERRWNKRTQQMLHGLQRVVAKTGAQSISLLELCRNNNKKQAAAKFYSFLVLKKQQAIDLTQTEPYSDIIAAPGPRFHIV
Experiment: co-IP; anti-HA agarose beads (Pierce HA-Tag IP/Co-IP Kit) with lysate of about 165 deyolked shield-stage embryos in Pierce IP Lysis Buffer, incubated overnight; uninjected wild-type embryos as negative control; blots with anti-Smc3 and anti-HA

binding: binds
B1: Smc3 (protein, UniProt Q803N2 1-1216)
chain: MYIKQVIIQGFRSYRDQTVVDPFGSKHNVIVGRNGSGKSNFFYAIQFVLSDEFSHLRPEQRLALLHEGTGPRVISAFVEIIFDNSDNRLPIDKEEVSLRRVIGAKKDQYFLDKKMVTKNDVMNLLESAGFSRSNPYYIVKQGKINQMATAPDSQRLKLLREVAGTRVYDERKEESISLMKETEGKREKINELLKYIEERLHTLEDEKEELAQYQKWDKMRRALEYTIYNQELNETRAKLDELSSKRETCGDKSRQLRDAQQDARDKVEETERVVRELKSRISAMKEEKEQLSAERQEQIKQRTKLELKAKDLQDELAGNSEQRKRLLKERQKLLEKIEEKQKELQETEPKFNTVKEKEERGIARLAQATQERTDLYAKQGRGSQFTSKEERDKWIKKELKSLDQAINDKKRQIAAIHKDLEDTEQNKERNLEQYNKLDQDLNEVKTRVEELDKKYYEVKNRKDELQSERNYLWREENAEQQALAAKREDLEKKQQLLRAATGKAILNGIDSINKVLEHFRRKGINQHVINGYHGIVMNNFECEPAFYTCVEVTAGTRLFYHIVETDEVSTKILMEFNKMNLPGEVTFLPLSKLDVRDTAYPETNDAIPMISKLRYSQNFDKAFKHVFGKTLICRSMEVSTQLARAFTMDCITLEGDQVSHRGALTGGYYDTRKSRLELQKDMRKAEEELGELEAKLNENLRRNIETINNEIDQLMNQMQQIETQQRKFKASRDSILSEMKMLKEKRQQSEKTFMPKQRSLQSLEASLHAMESTRESLKAELGADLLSQLSLEDQRRVDDLNDEIRQLQQDNRQLLNERIKLEGIMTRVETYLNENLRKRLDQVEQELNELRETEGGTVLTATTSELDGINKRIKDTMARSEDLDTLIDKTEVEIKEHQKSMERWKNIEKEQNEAINHDTKELEKMTNRQGMLLKKKEECMKKIRELGSLPQEAFEKYQTLTLKQLFRKLEQCNTELKKYSHVNKKALDQFVNFSEQKEKLIKRQDELDRGYKSIMELMNVLELRKYEAIQLTFKQVSKNFSEVFQKLVPGGKATLVMKKGDTEGGQSQDEGEGGDSERASSSQSSVPSVDQFTGVGIRVSFTGKQGEMREMQQLSGGQKSLVALALIFAIQKCDPAPFYLFDEIDQALDAQHRKAASDMIMELAGHAQFITTTFRPELLESADKFYGVKFRNKVSHIDVISAEQAKDFVEDDTTHG
